Reference: PubChem BioAssay AID1347131 (National Center for Advancing Translational Sciences (NCATS), 2019)
The whole screen tested about 410,000 compounds, of which about 2,000 (0.49%) were called active. The inconclusive results got no clear call from the source; some entries with a clear call stand among them for comparison. The call rests on the fitted dose curve; tested in HEK293 reporter line. Potencies of inconclusive entries are doubtful fits and often do not repeat.

assay: qHTS Assay for Foot and Mouth Disease Virus Antivirals: Primary Screen against the MLPCN compound library; conditions: FMDV antiviral cell-based qHTS; activity, negative = inhibition: at 57.9 µM (top of the series); further: nearly all actives have a fitted effect of over 55% in size
Potency means the concentration at half of the fitted maximal effect.

| SMILES | Potency | activity, negative = inhibition |
| --- | --- | --- |
| O=C1C(C=NCc2cccnc2)=C(O)c2ccccc21 | inconclusive: 22.4 µM [inhibitor, single point] | – |
| COc1ccccc1Nc1nc(C)nc2c1oc1ccccc12 | inconclusive: 20 µM [inhibitor, single point] | – |
| CCC(=O)Nc1ccc(C=C(C(C)=O)C(C)=O)cc1 | inconclusive: 20 µM [inhibitor, partial curve, poor fit] | – |
| CC(C)(C)OC(=O)N1CCN(c2ccc(CNC(=O)c3ccc(Cl)cc3)cc2)CC1 | inconclusive: 25.1 µM [inhibitor, partial curve, poor fit] | – |
| COc1ccc(-n2nc(C(=O)NCC(=O)Nc3cc(OC)c(OC)c(OC)c3)c3ccccc3c2=O)cc1 | inconclusive: 2.51 µM [inhibitor, partial curve, poor fit] | – |
| O=C(CCNC(=O)C1CCN(S(=O)(=O)c2ccccc2)CC1)Nc1cccc(C(F)(F)F)c1 | inconclusive: 20 µM [inhibitor, single point] | – |
| COc1cc(C(=O)OCC2CC(c3ccccc3)=NO2)cc(OC)c1OC (centres undefined) | inconclusive: 6.31 µM [inhibitor, full curve] | – |
| Cc1cc(C)nc(/N=C(\N)Nc2ccc(OCc3ccccc3)cc2)n1 | inconclusive: 28.2 µM [inhibitor, partial curve, poor fit] | – |
| Cc1ccc(SCCC(=O)Nc2cccc(N(C)S(C)(=O)=O)c2)cc1 | inconclusive: 15.8 µM [inhibitor, partial curve] | – |
| COc1cccc(C(=O)C(C#N)=C(SC)SC)c1 | inconclusive: 28.2 µM [inhibitor, partial curve, poor fit] | – |
| CC(C)c1ccc(C(=O)Nc2ccc(-c3nc4ccccc4s3)c(Cl)c2)cc1 | inconclusive: 4.47 µM [inhibitor, partial curve] | – |
| O=C(NNc1ccccc1Br)C(O)(c1cccc(C(F)(F)F)c1)c1cccc(C(F)(F)F)c1 | inconclusive: 35.5 µM [inhibitor, partial curve, poor fit] | – |
| COc1cccc(-n2c(-c3ccco3)nc3c(cnn3-c3ccccc3C)c2=O)c1 | inconclusive: 14.1 µM [inhibitor, partial curve, poor fit] | – |
| Cc1cc2nc(-c3nnnn3Cc3ccccc3)c(=O)[nH]c2cc1C | inactive | – |
| COc1ccc(CN(C(=O)c2oc3cc(C)ccc3c2C)C2CCS(=O)(=O)C2)cc1OC (centres undefined) | inactive | – |
| CN(C)C(=O)c1sccc1Oc1ccc(F)cc1[N+](=O)[O-] | inconclusive: 12.6 µM [inhibitor, partial curve] | – |
| CCOC(=O)c1c(C)[nH]c(CCC(=O)Nc2ccccc2OCC)c1C | inconclusive: 14.1 µM [inhibitor, partial curve, poor fit] | – |
| COC(=O)C1=C(c2ccc(-c3ccccc3)c(F)c2)C[C@@H]2CC[C@H]1N2C(=O)NC1CCCCC1 | inactive | – |
| COc1cccc(C(=O)Nc2cccc(-c3nnc(-c4ccccc4)o3)c2)c1 | inactive | – |
| COc1cc(/C=C2\SC(=O)N(Cc3ccc(F)cc3)C2=O)cc([N+](=O)[O-])c1O | inconclusive: 17.8 µM [inhibitor, single point] | – |

| SMILES | Potency | activity, negative = inhibition |
| --- | --- | --- |
| CC(=O)N1CCc2c(sc(NC(=O)C3CC3)c2-c2nc3ccccc3s2)C1 | inconclusive: 25.1 µM [inhibitor, partial curve, poor fit] | – |
| C#CC1(O)C=CC2C3CCC4=CC(=O)CCC4C3CCC21CC (centres undefined) | inconclusive: 14.1 µM [inhibitor, partial curve, poor fit] | – |
| CC(Oc1ccc(Br)cc1)C(=O)Nc1nc(-c2ccccn2)cs1 (centres undefined) | inconclusive: 39.8 µM [inhibitor, single point] | – |
| Cc1ccc2nc(-c3ccccn3)c(N)n2c1 | inconclusive: 14.1 µM [inhibitor, partial curve, poor fit] | – |
| Cc1ccc(-c2nnc(-c3ccccc3)c(N3CCOCC3)n2)cc1 | inactive | – |
| CCOc1ccc(S(=O)(=O)N2CCCC(C(=O)N3CCN(c4ccccc4)CC3)C2)cc1 (centres undefined) | inconclusive: 28.2 µM [inhibitor, partial curve, poor fit] | – |
| CCc1noc(C)c1C(=O)Nc1ccc(C)c(S(=O)(=O)N2CCCCCC2)c1 | inconclusive: 28.2 µM [inhibitor, single point] | – |
| CC1(C)CC(=O)c2sc(NC(=O)c3cccs3)nc2C1 | inconclusive: 14.1 µM [inhibitor, single point] | – |
| CCn1c(=S)sc2c(=O)n(CC(=O)Nc3cccc(Cl)c3)c(C)nc21 | inactive | – |
| CC(=O)c1c(C)[nH]c(C(=O)OCC(=O)Nc2cc(C)on2)c1C | inconclusive: 25.1 µM [inhibitor, partial curve, poor fit] | – |
| COC(=O)c1ccccc1NC(=O)c1nc(S(=O)(=O)Cc2ccccc2)ncc1Cl | inconclusive: 31.6 µM [inhibitor, partial curve, poor fit] | – |
| O=C(/C=C/c1ccccc1)Nc1cccc(C(=O)O)c1 | inconclusive: 10 µM [inhibitor, partial curve, poor fit] | – |
| C=CCn1c(COc2cccc(C)c2C)nnc1SCC(=O)N1CCN(c2ccccc2)CC1 | inconclusive: 17.8 µM [inhibitor, partial curve, poor fit] | – |
| COc1cc(NC(=O)c2cccc3c(-c4cccnc4)coc23)cc(OC)c1OC | inconclusive: 12.6 µM [inhibitor, partial curve, poor fit] | – |
| N#C/C(=C\C=C\c1ccccc1[N+](=O)[O-])C(=O)NC1CCCCC1 | inconclusive: 25.1 µM [inhibitor, partial curve, poor fit] | – |
| COc1ccccc1-c1c(C#N)c(N)nc2c1CCc1ccccc1-2 | inconclusive: 31.6 µM [inhibitor, partial curve, poor fit] | – |
| CC1CCc2nc(NC(=O)c3ccco3)sc2C1 (centres undefined) | inconclusive: 10 µM [inhibitor, partial curve, poor fit] | – |
| COc1ccc(-c2nc(NC(=O)c3c(C)noc3C)sc2C)cc1 | inactive | – |
| CCN(CC)S(=O)(=O)c1ccc(=O)n(CC(=O)N2CCCc3cc(C)ccc32)c1 | – | inconclusive: -30.8% [inhibitor] |

One compound at a time, as listed above. Order of values: Potency | activity, negative = inhibition
CC(=O)c1c(C)[nH]c(C(=O)OCC(=O)Nc2cc(C)on2)c1C is listed as inconclusive: 25.1 µM [inhibitor, partial curve, poor fit] | –
COc1cccc(C(=O)Nc2cccc(-c3nnc(-c4ccccc4)o3)c2)c1 is listed as inactive | –
